{"source": "PubChem BioAssay AID1508597 (Cure First, 2020)", "purpose": "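Genes whose silencing sensitises or protects ovarian cancer cells against rucaparib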 (primary screen)", "cells": "human ovarian carcinoma lines grown from tumours: OCI-P5x (papillary serous) and OCI-C5x (clear cell)", "reagent": "siRNA pool against human genes, 1.25 pmol siRNA per well", "time to read-out": "72 h or 96 h, depending on the cell culture", "conditions": "rucaparib 20 µM (about IC30) or vehicle, present until read-out", "measurement": "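ATP luminescence measured at 72 or 96 h according to the culture, then normalised and expressed as percent viability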", "reading the numbers": "viability, normalised: higher = more viable cells remaining", "rule for the call": "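a well counts as a hit if its normalised viability is under 80 percent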", "meaning of the calls": "active = viability under 80%; inactive = viability 80% or more", "note": "In all, the deposit lists about 2,100 reagents; this is a part drawn at random. 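Calls flag viability under 80% in either arm, not effects specific to rucaparib; the reference for percent is not stated.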 The record does not give: the 100% reference."}
{"target": "ZMYND11 (GeneID 10771)", "rucaparib or vehicle": "Rucaparib", "cell line": "OCI-C5x (clear cell)", "technical replicate": "1", "viability, normalised (%)": 61.1, "activity call": "active"}
{"target": "ZMYND11 (GeneID 10771)", "rucaparib or vehicle": "Rucaparib", "cell line": "OCI-C5x (clear cell)", "technical replicate": "2", "viability, normalised (%)": 67.5, "activity call": "active"}
{"target": "ZMYND11 (GeneID 10771)", "rucaparib or vehicle": "Rucaparib", "cell line": "OCI-C5x (clear cell)", "technical replicate": "3", "viability, normalised (%)": 48.3, "activity call": "active"}
{"target": "ZMYND11 (GeneID 10771)", "rucaparib or vehicle": "Rucaparib", "cell line": "OCI-P5x (serous)", "technical replicate": "1", "viability, normalised (%)": 59.4, "activity call": "active"}
{"target": "ZMYND11 (GeneID 10771)", "rucaparib or vehicle": "Rucaparib", "cell line": "OCI-P5x (serous)", "technical replicate": "2", "viability, normalised (%)": 47.6, "activity call": "active"}
{"target": "ZMYND11 (GeneID 10771)", "rucaparib or vehicle": "Rucaparib", "cell line": "OCI-P5x (serous)", "technical replicate": "3", "viability, normalised (%)": 54.9, "activity call": "active"}
{"target": "ZMYND11 (GeneID 10771)", "rucaparib or vehicle": "Vehicle", "cell line": "OCI-C5x (clear cell)", "technical replicate": "1", "viability, normalised (%)": 52.4, "activity call": "active"}
{"target": "ZMYND11 (GeneID 10771)", "rucaparib or vehicle": "Vehicle", "cell line": "OCI-C5x (clear cell)", "technical replicate": "2", "viability, normalised (%)": 50.8, "activity call": "active"}
{"target": "ZMYND11 (GeneID 10771)", "rucaparib or vehicle": "Vehicle", "cell line": "OCI-C5x (clear cell)", "technical replicate": "3", "viability, normalised (%)": 55.9, "activity call": "active"}
{"target": "ZMYND11 (GeneID 10771)", "rucaparib or vehicle": "Vehicle", "cell line": "OCI-P5x (serous)", "technical replicate": "1", "viability, normalised (%)": 67.5, "activity call": "active"}
{"target": "ZMYND11 (GeneID 10771)", "rucaparib or vehicle": "Vehicle", "cell line": "OCI-P5x (serous)", "technical replicate": "2", "viability, normalised (%)": 51.3, "activity call": "active"}
{"target": "ZMYND11 (GeneID 10771)", "rucaparib or vehicle": "Vehicle", "cell line": "OCI-P5x (serous)", "technical replicate": "3", "viability, normalised (%)": 51.8, "activity call": "active"}
